Assay results reported in publication PMC7496117, “A zinc finger protein BBX19 interacts with ABF3 to affect drought tolerance negatively in chrysanthemum”.
These are yes or no findings as the source states them, for the method shown. For some assays here: Binding seen in cells or lysates may run through a third protein. For some assays here: Sequences can lack the tags named with a protein.

Key:
[1] = biological target: CmBBX19-YFP^N (Chrysanthemum morifolium); experiment: split reporter; BiFC with YFP^N and YFP^C fusions co-infiltrated by A. tumefaciens GV3101 into N. benthamiana leaves; YFP fluorescence by confocal microscopy 60 h after infiltration
[2] = biological target: BD-CmBBX19 (Chrysanthemum morifolium); experiment: two-hybrid; Matchmaker GAL4 system, yeast strain Y2HGold; bait in pGBKT7 (BD), prey in pGADT7 (AD); growth on SD/-Trp-Leu, then spot assay on SD/-Trp-Leu-His-Ade

binding [1]	binding [2]	Binder
no binding	–	AtABF3 (BiFC construct) (protein, UniProt Q9M7Q3 1-454) MGSRLNFKSFVDGVSEQQPTVGTSLPLTRQNSVFSLTFDEFQNSWGGGIGKDFGSMNMDELLKNIWTAEESHSMMGNNTSYTNISNGNSGNTVINGGGNNIGGLAVGVGGESGGFFTGGSLQRQGSLTLPRTISQKRVDDVWKELMKEDDIGNGVVNGGTSGIPQRQQTLGEMTLEEFLVRAGVVREEPQPVESVTNFNGGFYGFGSNGGLGTASNGFVANQPQDLSGNGVAVRQDLLTAQTQPLQMQQPQMVQQPQMVQQPQQLIQTQERPFPKQTTIAFSNTVDVVNRSQPATQCQEVKPSILGIHNHPMNNNLLQAVDFKTGVTVAAVSPGSQMSPDLTPKSALDASLSPVPYMFGRVRKTGAVLEKVIERRQKRMIKNRESAARSRARKQAYTMELEAEIAQLKELNEELQKKQVEIMEKQKNQLLEPLRQPWGMGCKRQCLRRTLTGPW
–	no binding	AtABF3 (AD fusion) (protein, UniProt Q9M7Q3 1-454) MGSRLNFKSFVDGVSEQQPTVGTSLPLTRQNSVFSLTFDEFQNSWGGGIGKDFGSMNMDELLKNIWTAEESHSMMGNNTSYTNISNGNSGNTVINGGGNNIGGLAVGVGGESGGFFTGGSLQRQGSLTLPRTISQKRVDDVWKELMKEDDIGNGVVNGGTSGIPQRQQTLGEMTLEEFLVRAGVVREEPQPVESVTNFNGGFYGFGSNGGLGTASNGFVANQPQDLSGNGVAVRQDLLTAQTQPLQMQQPQMVQQPQMVQQPQQLIQTQERPFPKQTTIAFSNTVDVVNRSQPATQCQEVKPSILGIHNHPMNNNLLQAVDFKTGVTVAAVSPGSQMSPDLTPKSALDASLSPVPYMFGRVRKTGAVLEKVIERRQKRMIKNRESAARSRARKQAYTMELEAEIAQLKELNEELQKKQVEIMEKQKNQLLEPLRQPWGMGCKRQCLRRTLTGPW
